Article PMC3338482
No constants are given. Whether binding was seen depends on the method and setting. In cells and extracts the contact can be indirect.

Amino acid sequences for entries named in this document (tags omitted).
UniProt Q04206: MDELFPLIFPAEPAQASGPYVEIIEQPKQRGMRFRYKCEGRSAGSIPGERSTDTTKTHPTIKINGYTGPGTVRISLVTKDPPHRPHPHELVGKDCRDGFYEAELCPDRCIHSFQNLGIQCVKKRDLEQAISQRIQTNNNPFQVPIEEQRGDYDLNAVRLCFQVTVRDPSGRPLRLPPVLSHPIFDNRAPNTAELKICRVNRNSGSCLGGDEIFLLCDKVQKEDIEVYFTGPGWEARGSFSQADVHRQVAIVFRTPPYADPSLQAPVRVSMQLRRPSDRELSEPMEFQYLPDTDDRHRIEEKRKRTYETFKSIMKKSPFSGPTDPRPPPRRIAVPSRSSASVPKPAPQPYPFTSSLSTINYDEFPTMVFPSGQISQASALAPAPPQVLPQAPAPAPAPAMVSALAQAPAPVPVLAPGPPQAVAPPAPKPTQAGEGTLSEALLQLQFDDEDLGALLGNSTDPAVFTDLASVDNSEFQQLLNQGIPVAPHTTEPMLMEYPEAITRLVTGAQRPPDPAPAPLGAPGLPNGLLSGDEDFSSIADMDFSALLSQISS

Biological target: NF-κB p65 subunit (human (endogenous in BEAS-2B)) (UniProt Q04206)
Assay: co-IP; Total cell proteins of pCC10-transfected BEAS-2B cells stimulated with 10 ng/mL IL-1β for 4 hours; immunoprecipitated with rabbit anti-human p65 antibody (ProFound Mammalian Co-Immunoprecipitation Kit); blotted with anti-p65 and anti-CC10; rabbit normal serum as negative control

B1: Clara cell 10-kDa protein (CC10) (protein, UniProt P11684 22-91)
chain: EICPSFQRVIETLLMDTPSSYEAAMELFSPDQDMREAGAQLKKLVDTLPQKPRESIIKLMEKIAQSSLCN
binding: no binding
